For part of these data: At least one peptide structure holds a part that was inferred or is arguable (an end, a ring closure or a residue). For part of these data: For at least one compound, name, drawing or mass did not settle the structure. Where no end group is shown, it is not given here.
Tests used:
[1] = system: somatostatin receptor/K+ channel linkage in human growth hormone-secreting pituitary adenoma cells; test: Somatostatin-induced K+ currents, whole cell patch clamp; format: cell-based; conditions: 100 μM peptide in patch electrode solution, 100 nM somatostatin
Description: Inhibition Of somatostatin receptor function. It is known that somatostatin induces K^+ channel activation in a manner sensitive to pertussis toxin in human growth hormone-secreting tumors (Yamashita et al., Am. J. Physiol. 253:E28-E32, 1987). The effect of each of ACGi2, ACGi3, ACGs, ACGo1, and ACGo2 on somatostatin-induced K^+ currents in human pituitary cells was measured using the patch clamp technique, as described below.
Three human growth hormone-secreting pituitary adenomas were obtained at transsphenoidal surgery. The tissue was minced into small pieces (less than 1 mm in diameter) and was treated with 1000 units/ml dispase (Wako, Japan). These dissociated cells (≈10^5 cells/ml) were seeded onto 35-mm culture dishes. The monolayer cells were cultured at 37° C. under 5% CO2 in humidified air in Delbecco's modified Eagle's medium (DMEM) containing 10% heat-inactivated FCS. Electrophysiological experiments were done within 4 weeks after cell preparation.
A whole cell variation of the patch electrode voltage clamp technique was used to record membrane currents (Hamill et al., Pfluger Arch. 391:85-100, 1987). The patch electrode solution contained 95 mM potassium aspartate, 47.5 mM KCl, 1 mM MgCl2, 5.0 mM EGTA (potassium salt), 10 mM HEPES/KOH (pH 7.2), 2 mM ATP and 0.1 mM GTP. One of the anticouplone peptides, dissolved in distilled water, was mixed with the patch electrode solution to a final concentration of 100 μM, and was introduced into the interior of a pituitary cell in accordance with the published method. The extracellular medium, composed of 125 mM NaCl, 5 mM KCl, 1 mM MgCl2, 2.5 mM CaCl2, and 10 mM HEPES/NaOH (pH 7.4), was continuously perfused around the test cell during recording, using a peristaltic pump, and 10^-7 M somatostatin was introduced by changing the perfused medium. The liquid junction potential between the extracellular solution and the internal solution was directly measured using a 3M KCl electrode as a reference. The value of the liquid junction potential (-8 mV) was corrected in each experiment. Glass capillaries of 1.5 mm diameter with a filament were used to fabricate an electrode for the whole cell clamp. They were coated with Sylgard and fire-polished before use. The patch electrode resistance used in these studies was in the range of 5 to 8 M.OMEGA.. The seal resistance was over several tens of G.OMEGA.. A List EPC-7 amplifier was used for the membrane current and potential. Application of voltage or current pulse, data acquisition, and analysis were done with a Gateway 2000 computer using the pCLAMP program (Axon Instruments, CA). All experiments were performed at room temperature (22°-25° C.).
The intracellular solution that filled the inside of the pipet portion of the apparatus contained one of the following anticouplone peptides at 100 μM: ACGi2, ACGi3, ACGs, ACGo1, or ACGo2. The exterior of the cell was bathed with the extracellular solution containing 100 nM somatostatin while the outward K^+ current was monitored. In the absence of anticouplone peptides, somatostatin induces approximately 20 pA K^+ current over baseline. This somatostatin-induced current level is not affected by the presence of 100 μM ACGi3, ACGs, ACGo1, or ACGo2. ACGi2, however, abolished the somatostatin-induced increase, in K^+ current, reducing the measured current to the baseline level observed in the absence of somatostatin. […]

Chains of the proteins cited; added tags and fusions are not shown. Residues count along the entry.
UniProt A7MBH9, 2-355 limits assumed: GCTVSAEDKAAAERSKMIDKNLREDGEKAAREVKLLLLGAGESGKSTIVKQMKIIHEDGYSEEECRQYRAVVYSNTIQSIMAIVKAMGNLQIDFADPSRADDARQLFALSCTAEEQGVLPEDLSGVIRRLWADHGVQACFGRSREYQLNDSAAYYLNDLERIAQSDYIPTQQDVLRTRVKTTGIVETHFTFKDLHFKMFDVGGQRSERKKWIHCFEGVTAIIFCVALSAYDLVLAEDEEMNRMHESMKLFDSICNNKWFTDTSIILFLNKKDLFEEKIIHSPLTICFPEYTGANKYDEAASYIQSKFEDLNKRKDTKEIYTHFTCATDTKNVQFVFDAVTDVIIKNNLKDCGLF

mAChR-Gi2 coupling = molecular target: T1, mAChR-Gi2 coupling (Bos taurus, UniProt A7MBH9); test: GTPγS binding rate in mAChR-Gi2 reconstituted phospholipid vesicles; format: biochemical, porcine mAChR, bovine Gi2; conditions: 10 mM acetylcholine, 20 min at 30° C., no ACGi2; basal 0.112±0.005
T1 construct: trimeric Gi2 purified from bovine spleen to homogeneity; from tissue; host or cells: bovine spleen (Gi2); porcine brain (mAChR)
Description: (§1) Materials and Methods The in vitro assays described below utilize the couplone portion of each of a number of G-coupled receptors, instead of an intact receptor molecule, as a means for activating the corresponding anticouplone or intact G-protein. Except as noted below, Gi2 used in this study was trimeric Gi2 (i.e., Gi2 αβγ) purified from bovine brain to near homogeneity (Katada et al., FEBS Lett. 213:353-358 (1987), stored in buffer A (20 mM hepes/NaOH (pH 7.4), 1 mM EDTA, and 0.7% CHAPS), and diluted≥10 fold for assays. The Gi2 used for the reconstitution experiment was trimeric Gi2 purified from bovine spleen to homogeneity and dissolved in buffer B (Morishita et al., 1989). Gi3 α (Morishita et al., Biochem. Biophys. Res. Commun. 172:249-255 (1990), was purified from bovine spleen and used in combination with 1.5-fold concentrated Gβγ (Katada et al., 1987). This preparation of Gi3 α was 10-20% contaminated by Gi1 α, but not by other G proteins. Trimeric Gs and Gβγ purified from bovine brain to near homogeneity (Katada et al., 1987) were also stored in buffer A.
mAChR (muscarinic acetylcholine receptor) was purified from porcine brain to near homogeneity (Haga et al., 1986) and dissolved in 0.5M potassium phosphate buffer (pH 7.0) containing 0.1% digitonin. This receptor preparation was reconstituted with Gi2 in phospholipid vesicles using a gel filtration method as described previously (Nishimoto et al., 1989). The concentrations of mAChR and Gi2 in the vesicles were 6.9 nM and 29 nM, respectively.
(§2) GTPγS binding Assay--GTPγS binding to G proteins was assayed at 37° C. in 20 mM Hepes/NaOH buffer (pH 7.4) containing 130 μM MgCl2, 110 μM EDTA and 60 nM [^35 S]GTPγS, as described previously (Okamoto et al., 1990). GTPγS binding to polypeptides was negligible. The total amount of G protein was measured as maximal GTPγS binding at room temperature, as described (Okamoto et al., Cell 67:723-730, 1991a). [^35 S]GTPγS was purchased from DuPont-New England Nuclear. Binding of GTPγS to G proteins obeyed first-order kinetics according to the equation ln[(BT-B)/BT]=-kapp t, where B is the binding at time t and BT is the total binding observable at an infinite time. Thus, the apparent first-order rate constant for GTPγS binding (kapp), which is equal to the slope of the tangent to the GTPγS binding curve at time 0 and represents the actual GTPγS binding rate, was calculated from this equation.
To determine whether ACGi2 uncouples Gi2 from the signals of intact receptors as well as from the signals of their effector peptides, the effects of ACGi2 in mAChR-Gi2 reconstituted phospholipid vesicles was studied (FIG. 4). […]

Gi2 = molecular target: T2, Gi2 (Bos taurus, UniProt A7MBH9); test: GTPγS binding assay, peptide 14-induced Gi2 activation; format: biochemical, bovine; conditions: for effect on peptide 14-induced Gi2 activation: 10 nM Gi2, 30 μM peptide 14, 5 min, various concentrations; for potency group according to the inhibition observed at 10 μM: 10 nM Gi2, 30 μM peptide 14
T2 construct: trimeric Gi2 (i.e., Gi2 αβγ) purified from bovine brain to near homogeneity; from tissue; host or cells: bovine brain
Description: as §1, §2
In the experiment illustrated in FIG. 1A, 10 nM Gi2 was incubated with 30 μM peptide 14 (RVGLVRGEKARKGK; SEQ ID NO: 27), the couplone portion of the IGF-II receptor, in the presence of various concentrations of (.quadrature.) ACGi2 (DAVTDVIIKNNLKDC; SEQ ID NO: 3), (567 ) the control Gi2 α Glu297-Asp310 peptide (EAASYIQSKFEKLN; SEQ ID NO: 18), or (.diamond.) the control Gi2 α Lys346-Phe355 peptide (KNNLKDCGLF; SEQ ID NO: 19) for 5 min under the GTPγS binding assay conditions described above, and GTPγS binding to G proteins was measured. The effect of ACGi2 on Gi2 in the absence of peptide 14 is indicated by .box-solid.. Percent stimulation of GTPγS binding was calculated by subtracting the basal fractional binding and dividing by the stimulated fractional binding observed in the absence of ACGi2. The basal fractional binding (=0%) was 0.39 mol GTPγS binding/mol Gi /5 min (5 min^-1). The 100% increase represents the GTPγS binding of 0.85 (5 min^-1). Values in all figures represent the mean ±S.E. of three experiments.
To verify the notion that ACGi2 acts on Gi2 itself, and not on receptor sequences, two series of experiments were performed. First, the dose-response curve for peptide 14 action on Gi2 in the presence of various concentrations of ACGi2 was generated (FIG. 2A). Following incubation of 10 nM Gi2 with various concentrations of peptide 14 in the absence (.quadrature.) or presence of 10 μM (.diamond-solid.) or 30 μM (.box-solid.) ACGi2 for 5 min, GTPγS binding was assayed; fractional GTPγS binding to Gi2 is indicated in the figure.
The second series of experiments investigated the effect of ACGi2 on lower concentrations of Gi2 that had been activated by peptide 14 to the same extent (FIG. 2B). 1 nM Gi2 was incubated for 5 min with 3 μM peptide 14 in the presence of various concentrations of ACGi2, and GTPγS binding was measured. The fractional GTPγS binding at 0% and 100% in this experiment was 0.40 and 0.55 (5 min^-1), respectively. […]

[2] = system: NRK (rat renal fibroblast) cells; test: TGFβ-induced fibronectin secretion, immunoblot; format: cell-based; conditions: 100 μM peptide, 50 pM TGFβ, 12 hours
Source text: Inhibition of TGFβ-induced matrix formation. The secretion of matrix proteins (in particular, fibronectin) by kidney, lung and liver cells may lead to sclerosis of those organs. Transforming growth factor-β (TGFβ), which stimulates the secretion of fibronectin, may therefore contribute to such sclerosis. Since the TGFβ receptor is a Go2 -coupled receptor, the ability of ACGo2 to inhibit the TGFβ-induced stimulation of fibronectin secretion by NRK (rat renal fibroblast) cells (Ignotz and Massague, J. Biol. Chem. 261:4337-4345, 1986) was assayed.
NRK cells were cultured in RPMI 1640 supplemented with 5% FCS in a CO2 -incubator at 37° C. The medium was replaced every two days. Cells were regularly subcultured by trypsin-EDTA before reaching confluency. In the experiments described below, the cells were grown in monolayer to confluency in 6-well culture plates (Corning, N.Y.), then incubated for 12 hours with RPMI 1640 plus 0.5% FCS, and for a further 12 hours with RPMI 1640 plus 0.5% FCS in the presence or absence of 50 pM TGFβ (R & D System, Minneapolis, Minn.), to which was added 100 μM ACGi2, ACGs, ACGo2, or ACGq. The medium from each well was collected and frozen at -20° C. until assay. Fibronectin secreted into each sample of medium was assessed by immunoblot as follows:
Each medium sample was mixed with an equal volume of 2×concentrated Laemmli buffer (Laemmli, Nature 227:680-685, 1970), and boiled at 90° C. for 5 min. Proteins were separated by electrophoresis on 7.5% SDS-polyacrylamide gel, and then transferred to a polyvinylidene difluoride sheet (Immobilon-P, Millipore) by electroelution at 0°-4° C. with constant voltage of 75 V for 8 hours. After transfer, the sheet was incubated with PBS containing 5% bovine serum albumin and 2% skim milk (Defco) overnight at room temperature to block nonspecific protein binding. The sheet was then incubated with PBS containing 0.1% bovine serum albumin and an anti-fibronectin antibody (Chemicon International, CA) at a final concentration of 0.5 mg/ml for 3 hours at room temperature. After washing with ice-cold PBS/0.05% Tween 20 three times, the sheet was incubated with 0.04 units/ml of a horseradish peroxidase-conjugated anti-rabbit IgG (Sigma, A-8257) in PBS/0.1% bovine serum albumin for 3 hours at room temperature. The sheet was washed six times with ice-cold PBS/0.05% Tween 20, incubated with ECL (Enhanced ChemiLuminescence) solution (Amersham, RPN 2101) according to instructions for 1 min, and exposed on Kodak XAR5 film for 40-60 seconds.

DAVTDIIIANNLRGC [ACGo1, DAVTDIIIANNLRGC]
effect on somatostatin-induced K+ current [1]: not affected

CC(=O)OCC[N+](C)(C)C [acetylcholine, reference compound]
rate constant kapp of GTPγS binding to Gi2 (mAChR-Gi2 coupling): 0.286 ± 0.082 min⁻¹

EAASYIQSKFEKLN [Glu297-Asn310, EAASYIQSKFEKLN, reference compound]
effect on peptide 14-induced Gi2 activation (Gi2): no effect

DVIIKNNLKDC [p11 variant, DVIIKNNLKDC]
potency group according to the inhibition observed at 10 μM (Gi2): intermediate potency

DAVTDVIIKNNLKEC [ACGi3, DAVTDVIIKNNLKEC]
effect on somatostatin-induced K+ current [1]: not affected

DAVTDVIIKNALKDC [A4 variant, DAVTDVIIKNALKDC]
potency group according to the inhibition observed at 10 μM (Gi2): intermediate potency

DAVTDIIIAKNLRGC [ACGo2, DAVTDIIIAKNLRGC]
fibronectin secreted by cells exposed to TGFβ in the presence of peptide [2]: relatively little fibronectin | effect on somatostatin-induced K+ current [1]: not affected

KNNLKDCGLF [KNNLKDCGLF, reference compound]
effect on peptide 14-induced Gi2 activation (Gi2): no inhibitory effect
